Values from PubChem BioAssay AID504793 (Drosophila RNAi Screening Center, 2011).

Test: 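Knock-downs allowing continued mitosis even though DNA is damaged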 (primary screen)
Cell system: Drosophila S2R+ cells
Reagents: long dsRNA against Drosophila genes, about 0.25 µg dsRNA per well
Time to read-out: 4 days of dsRNA, then 4 hours of drug before read-out
Challenge: doxorubicin 0.5 µM for 4 hours to cause double-strand breaks, in cells also given a low, harmless dose of dsRNA against nbs to sensitise the assay
Read-out: 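Per-well count of mitotic cells stained for phospho-histone H3 after doxorubicin exposure, used as mitotic index; counts are raw and not normalised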
Direction: mitotic cells: higher = more cells in mitosis, weaker G2 arrest
Active means: 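Genes are called active only when high mitotic counts were reproduced with independent dsRNAs and mitosis was checked for delay without damage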
Meaning of the calls: active = confirmed in follow-up tests; inactive = not confirmed
The screen tested about 23,000 reagents; this is an unselected part of those that have a named target and a result. Over the whole deposit, 62 (0.27%) were called active. 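Calls come from follow-up tests whose scores are not deposited, so confirmed genes may have low counts here; counts are not normalised per plate.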 The raw values are shown without normalisation. Names joined by + are all predicted targets of the reagent.

predicted target | dsRNA | mitotic cells, replicate 1 | mitotic cells, replicate 2 | activity call
CG3748 (GeneID 34252) | DRSC02716 | 6 | – | inactive
CG3748 (GeneID 34252) | DRSC29984 | 2 | – | inactive
kraken (GeneID 33265) | DRSC00824 | 2 | – | inactive
kraken (GeneID 33265) | DRSC28163 | 3 | – | inactive
CG7551 (GeneID 39280) | DRSC10876 | 4 | – | inactive
CG30222 (GeneID 50129) | DRSC04125 | 4 | – | inactive
CG30222 (GeneID 50129) | DRSC04262 | 7 | – | inactive
ng2 + ng1 | DRSC23988 | 2 | – | inactive
Hsp26 (GeneID 39075) | DRSC11189 | 5 | – | inactive
Tsp42Ei (GeneID 35618) | DRSC06189 | 6 | – | inactive
Tsp42Ei (GeneID 35618) | DRSC26994 | 4 | – | inactive
Wnt4 (GeneID 34007) | DRSC00976 | 15 | – | inactive
Wnt4 (GeneID 34007) | DRSC03477 | 4 | – | inactive
CG13384 (GeneID 34160) | DRSC02258 | 6 | – | inactive
ro (GeneID 43234) | DRSC17046 | 8 | – | inactive
ro (GeneID 43234) | DRSC23565 | 6 | – | inactive
Cec2 (GeneID 3772199) | DRSC21885 | 6 | – | inactive
Cec2 (GeneID 3772199) | DRSC29067 | 2 | – | inactive
Nckx30C (GeneID 45248) | DRSC02686 | 7 | – | inactive
Nckx30C (GeneID 45248) | DRSC02687 | 5 | – | inactive
Nckx30C (GeneID 45248) | DRSC02688 | 2 | – | inactive
Nckx30C (GeneID 45248) | DRSC02689 | 6 | – | inactive
CG4998 (GeneID 39808) | DRSC10466 | 4 | – | inactive
CG4998 (GeneID 39808) | DRSC22911 | 14 | – | inactive
Snx21 (GeneID 33466) | DRSC00564 | 4 | – | inactive
Snx21 (GeneID 33466) | DRSC28493 | 5 | – | inactive
elfless (GeneID 35076) | DRSC02451 | 6 | – | inactive
CG18231 (GeneID 40026) | DRSC10307 | 5 | – | inactive
CG7011 + Prp31 | DRSC10760 | 10 | – | inactive
Charon (GeneID 33303) | DRSC00679 | 6 | – | inactive
CG32812 (GeneID 31074) | DRSC18478 | 13 | – | inactive
CG31809 (GeneID 318954) | DRSC01561 | 7 | – | inactive
POLDIP2 (GeneID 40655) | DRSC12194 | 3 | – | inactive
CG14829 (GeneID 38792) | DRSC10199 | 6 | – | inactive
dnr1 (GeneID 37575) | DRSC03948 | 2 | – | inactive
dnr1 (GeneID 37575) | DRSC04122 | 2 | – | inactive
dnr1 (GeneID 37575) | DRSC26101 | 6 | – | inactive
CG7987 (GeneID 41768) | DRSC16357 | 6 | – | inactive
CG7987 (GeneID 41768) | DRSC30002 | 13 | – | inactive
CG18178 (GeneID 39138) | DRSC10302 | 2 | – | inactive
CG17024 (retired record) (GeneID 34664) | DRSC02562 | 2 | – | inactive
CG15027 (GeneID 32440) | DRSC19608 | 10 | – | inactive

7 of these entries, set out differently:
{"predicted target":"CG7551 (GeneID 39280)","dsRNA":"DRSC10876","mitotic cells, replicate 1":4,"activity call":"inactive"}
{"predicted target":"CG30222 (GeneID 50129)","dsRNA":"DRSC04125","mitotic cells, replicate 1":4,"activity call":"inactive"}
{"predicted target":"CG30222 (GeneID 50129)","dsRNA":"DRSC04262","mitotic cells, replicate 1":7,"activity call":"inactive"}
{"predicted target":"ng2 + ng1","dsRNA":"DRSC23988","mitotic cells, replicate 1":2,"activity call":"inactive"}
{"predicted target":"Hsp26 (GeneID 39075)","dsRNA":"DRSC11189","mitotic cells, replicate 1":5,"activity call":"inactive"}
{"predicted target":"Tsp42Ei (GeneID 35618)","dsRNA":"DRSC06189","mitotic cells, replicate 1":6,"activity call":"inactive"}
{"predicted target":"Tsp42Ei (GeneID 35618)","dsRNA":"DRSC26994","mitotic cells, replicate 1":4,"activity call":"inactive"}

Continued.
predicted target | dsRNA | mitotic cells, replicate 1 | mitotic cells, replicate 2 | activity call
CG1946 (GeneID 35720) | DRSC06804 | 8 | – | inactive
CG1946 (GeneID 35720) | DRSC28499 | 6 | – | inactive
Sbat (GeneID 319043) | DRSC00160 | 4 | – | inactive
CG15239 (GeneID 31343) | DRSC17972 | 6 | – | inactive
CG15239 (GeneID 31343) | DRSC25155 | 3 | – | inactive
CG15923 (GeneID 42443) | DRSC15129 | 6 | – | inactive
Lcp2 (GeneID 35818) | DRSC07456 | 8 | – | inactive
CG11112 (GeneID 35658) | DRSC06038 | 9 | – | inactive
CG11112 (GeneID 35658) | DRSC25552 | 5 | – | inactive
CG7968 (GeneID 34802) | DRSC01903 | 4 | – | inactive
CG32809 (GeneID 31121) | DRSC18507 | 8 | – | inactive
CG32809 (GeneID 31121) | DRSC18562 | 9 | – | inactive
CG32809 (GeneID 31121) | DRSC18592 | 4 | – | inactive
Ccdc114 (GeneID 42024) | DRSC15025 | 6 | – | inactive
adp (GeneID 37073) | DRSC06916 | 2 | – | inactive
Ir52b (GeneID 246631) | DRSC06263 | 2 | – | inactive
PDCD-5 (GeneID 39776) | DRSC09955 | 4 | – | inactive
CG18469 (GeneID 36943) | DRSC21838 | 2 | – | inactive
CG3984 (GeneID 41821) | DRSC15530 | 4 | – | inactive
CSN6 (GeneID 42661) | DRSC16593 | 21 | – | active
CG11000 (GeneID 40721) | DRSC12158 | 5 | – | inactive
CG11000 (GeneID 40721) | DRSC27020 | 5 | – | inactive
sds22 (GeneID 42091) | DRSC17052 | 7 | – | inactive
GstD9 (GeneID 41502) | DRSC14185 | 7 | – | inactive
GstD9 (GeneID 41502) | DRSC25307 | 7 | – | inactive
CG15912 (GeneID 31385) | DRSC18105 | 11 | – | inactive
CG15912 (GeneID 31385) | DRSC28275 | 7 | – | inactive
CG5139 (GeneID 33309) | DRSC00681 | 3 | – | inactive
CG5139 (GeneID 33309) | DRSC26541 | 8 | – | inactive
CG32040 (GeneID 317835) | DRSC22459 | 13 | – | inactive
CG33221 (retired record) (GeneID 2768878) | DRSC21201 | 5 | 9 | inactive
CG3534 (GeneID 42047) | DRSC15494 | 5 | – | inactive
CG3534 (GeneID 42047) | DRSC26023 | 8 | – | inactive
